This assay addresses Zinc-finger of the cerebellum 2 (Zic2) (human (endogenous in DLD-1, SW480, HCT116)) (UniProt O95409). As to the kind of experiment: co-IP; lysates of DLD-1, SW480 and HCT116 cells in Triton X-100 lysis buffer (150 mM NaCl, 0.5% NP-40, Tris-HCl pH 8.0, glycerol) with phosphatase and protease inhibitors; Thermo Scientific Pierce Co-IP kit; detected by western blot. Background: In western blotting, separated proteins are transferred to a membrane and probed.

Protein sequences, listed by entry. Tags and fused reporters are not part of them. Lines headed by an entry give the natural chain unless they say otherwise; changes in a name come on top.
UniProt O95409: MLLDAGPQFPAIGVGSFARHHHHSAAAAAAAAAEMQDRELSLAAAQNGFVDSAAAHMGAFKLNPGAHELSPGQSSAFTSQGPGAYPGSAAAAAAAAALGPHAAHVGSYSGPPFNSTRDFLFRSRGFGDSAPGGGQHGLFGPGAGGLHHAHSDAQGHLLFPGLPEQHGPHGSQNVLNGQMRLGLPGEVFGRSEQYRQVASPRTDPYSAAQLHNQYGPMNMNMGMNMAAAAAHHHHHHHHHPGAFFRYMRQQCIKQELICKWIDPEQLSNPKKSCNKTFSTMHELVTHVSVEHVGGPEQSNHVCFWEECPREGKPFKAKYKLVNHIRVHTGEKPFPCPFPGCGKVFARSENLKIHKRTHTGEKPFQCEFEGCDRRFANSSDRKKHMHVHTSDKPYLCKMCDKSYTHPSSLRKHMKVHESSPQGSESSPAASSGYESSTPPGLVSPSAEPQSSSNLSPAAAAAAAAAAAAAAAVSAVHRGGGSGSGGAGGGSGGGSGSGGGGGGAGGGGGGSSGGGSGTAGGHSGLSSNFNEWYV
UniProt P35222: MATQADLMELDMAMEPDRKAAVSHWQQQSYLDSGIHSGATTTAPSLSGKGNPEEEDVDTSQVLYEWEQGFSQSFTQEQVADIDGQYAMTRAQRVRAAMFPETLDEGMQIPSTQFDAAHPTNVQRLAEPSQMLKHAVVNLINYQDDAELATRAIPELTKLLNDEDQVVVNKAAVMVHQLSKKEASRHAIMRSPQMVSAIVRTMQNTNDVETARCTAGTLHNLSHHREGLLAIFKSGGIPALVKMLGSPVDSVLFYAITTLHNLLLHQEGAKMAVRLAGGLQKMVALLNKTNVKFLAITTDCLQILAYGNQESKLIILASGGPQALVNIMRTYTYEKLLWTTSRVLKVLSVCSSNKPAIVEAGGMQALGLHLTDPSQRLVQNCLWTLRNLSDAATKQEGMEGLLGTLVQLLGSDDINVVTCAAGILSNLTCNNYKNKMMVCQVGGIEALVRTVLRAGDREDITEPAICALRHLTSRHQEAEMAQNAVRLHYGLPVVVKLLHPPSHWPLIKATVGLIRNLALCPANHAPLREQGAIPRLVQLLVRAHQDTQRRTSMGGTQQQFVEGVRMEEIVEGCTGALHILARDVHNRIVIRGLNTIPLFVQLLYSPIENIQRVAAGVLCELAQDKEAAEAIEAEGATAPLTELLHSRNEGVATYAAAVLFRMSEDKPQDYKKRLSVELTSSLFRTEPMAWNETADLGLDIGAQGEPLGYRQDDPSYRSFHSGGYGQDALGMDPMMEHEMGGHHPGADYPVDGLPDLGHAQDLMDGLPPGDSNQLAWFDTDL

No constants are given. Whether binding was seen depends on the method and setting. Binding seen in cells or lysates may run through a third protein. Binding can be weak; no strength is given.

“β-catenin of HCT116 cells (in-frame deletion at Ser45) (from UniProt P35222)”: the binding entry is “binds”.

(Values after paper PMC8184991.)
